The list shows a part of the results, in another mix than the full data. At the low end of the ranking the order means little.

Sequences of proteins named here, by UniProt entry; tags and fusion partners are left off. A change or cut given only in a name is not applied to a line headed by its entry.
UniProt Q9Y603: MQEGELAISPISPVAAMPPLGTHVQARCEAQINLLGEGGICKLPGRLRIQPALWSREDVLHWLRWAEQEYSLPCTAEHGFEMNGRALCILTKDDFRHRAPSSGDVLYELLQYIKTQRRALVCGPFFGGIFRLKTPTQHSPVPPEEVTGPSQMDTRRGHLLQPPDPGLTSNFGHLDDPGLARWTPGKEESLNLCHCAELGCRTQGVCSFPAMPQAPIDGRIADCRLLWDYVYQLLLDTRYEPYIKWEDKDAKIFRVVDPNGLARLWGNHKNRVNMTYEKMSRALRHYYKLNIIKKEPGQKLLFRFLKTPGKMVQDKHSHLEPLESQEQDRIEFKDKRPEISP
UniProt P41212: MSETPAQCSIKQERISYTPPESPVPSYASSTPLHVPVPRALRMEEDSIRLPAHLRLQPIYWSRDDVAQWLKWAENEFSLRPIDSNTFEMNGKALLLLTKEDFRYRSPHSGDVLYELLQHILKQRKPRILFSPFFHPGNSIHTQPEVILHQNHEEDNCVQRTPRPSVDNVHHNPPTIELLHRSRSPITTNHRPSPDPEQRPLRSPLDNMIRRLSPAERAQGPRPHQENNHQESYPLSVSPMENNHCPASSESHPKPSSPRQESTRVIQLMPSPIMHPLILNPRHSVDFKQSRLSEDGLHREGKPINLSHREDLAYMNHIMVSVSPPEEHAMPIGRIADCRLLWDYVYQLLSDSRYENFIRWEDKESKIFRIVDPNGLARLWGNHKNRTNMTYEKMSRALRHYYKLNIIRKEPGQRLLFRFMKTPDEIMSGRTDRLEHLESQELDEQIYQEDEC

One experiment deals with T1, ELF3 (UniProt P78545).
T1 sequence: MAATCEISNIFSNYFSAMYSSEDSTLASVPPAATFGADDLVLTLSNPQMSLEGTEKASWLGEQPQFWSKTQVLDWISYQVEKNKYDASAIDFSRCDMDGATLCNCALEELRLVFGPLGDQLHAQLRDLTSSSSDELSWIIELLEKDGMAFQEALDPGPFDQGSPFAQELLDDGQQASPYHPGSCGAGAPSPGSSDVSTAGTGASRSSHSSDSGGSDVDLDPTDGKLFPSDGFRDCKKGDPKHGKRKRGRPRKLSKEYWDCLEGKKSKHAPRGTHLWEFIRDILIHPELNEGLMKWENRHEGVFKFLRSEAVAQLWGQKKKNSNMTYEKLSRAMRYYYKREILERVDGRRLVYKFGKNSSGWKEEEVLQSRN
Description: DAPPL (digital affinity profiling via proximity ligation, sequencing). The settings on record: 10 mM Tris-HCl pH 7.5, 50 mM NaCl, 1 mM DTT, 4% glycerol, room temperature, 30 min; GST-TFs on glutathione beads, 16-mer random dsDNA library, 0.1% …; high values mean tight binding; double strand, one strand shown; scale: fold enrichment (6-mer frequency, TF over GST control).
For the sequence GTGGCC, the binding signal was found to be 1.09. Same read-out and setting: the same measure for CGAGAA: 0.851; for GTCCAA: 0.941; for CAGAAC: 0.97. On to AGTGCT, for which the binding signal came out at 1.02.

Regarding CATGGC, the binding signal was 0.923. Still for that read-out and setting: under CCACGA stands 1; under GATGGG, 0.997. CCGGGT: the binding signal was 1.12. On the same count and under the same terms, under AATTTC stands 1.75. On the same count and under the same terms, under ATCGCG stands 0.856. CAGCGC had a binding signal of 0.962. AGGCCC: the binding signal is 0.833. Regarding TATCAA, the binding signal turned out to be 0.921.

Regarding ACACGG, the binding signal turned out to be 1.06. Same read-out and setting: under AAAGTC stands 0.961; under AAGGCC, 0.961; under AACTCT, 1.44. In the case of TTTAAG, the binding signal turned out to be 1.28.

The target in a further experiment is ETV7 (UniProt Q9Y603). The description is as above. The settings on record: 10 mM Tris-HCl pH 7.5, 50 mM NaCl, 1 mM DTT, 4% glycerol, room temperature, 30 min; GST-TFs on glutathione beads, 16-mer random dsDNA library, 0.1% …; high values mean tight binding; double strand, one strand shown; scale: fold enrichment (6-mer frequency, TF over GST control).
In the case of AAATAG, the binding signal came out at 1.23.

With CGGATG, the binding signal turned out to be 1.41.

In the case of TTGTGT, the binding signal came out at 1.34. For ATTCCT, the binding signal is 1.39. For ATGGCA, the binding signal worked out at 1.24.

TAAGGG: the binding signal worked out at 0.965. AGTACG showed a binding signal of 0.889. The same measure, in the same setting: the same measure for AGTAAA: 0.988; for ATCACA: 0.988. The same measure, in the same setting: the same measure for CGGCAC: 1; for GCAAAC: 0.909; for AATGAC: 1.29.

Consider TAAGCG, for which the binding signal came out at 0.974.

For the sequence TGCTCG, the binding signal came out at 1.18. As to ATCTGG, the binding signal came out at 1.14. Same read-out and setting: the same measure for TGATTA: 1.05; for ATGGGG: 0.888; for TAATAC: 1.11. GTTAAA yielded a binding signal of 0.975. On the same count and under the same terms, under ACCCGG stands 1.55.

The next experiment deals with ETV6 (UniProt P41212). The experiment is described as above. The settings on record: 10 mM Tris-HCl pH 7.5, 50 mM NaCl, 1 mM DTT, 4% glycerol, room temperature, 30 min; GST-TFs on glutathione beads, 16-mer random dsDNA library, 0.1% …; high values mean tight binding; double strand, one strand shown; scale: fold enrichment (6-mer frequency, TF over GST control).
As to GTGGCC, the binding signal came out at 1.1. Same read-out and setting: under CGAGAA stands 0.918; under GTCCAA, 0.923; under CAGAAC, 0.91.

As for AGTGCT, the binding signal was 1.52. CATGGC registered a binding signal of 1. Turning to CCACGA, the binding signal was 1.01. On to GATGGG, for which the binding signal is 0.958. The sequence CCGGGT displayed a binding signal of 1.21. For AATTTC, the binding signal came out at 1.94.

In turn, ATCGCG came in with a binding signal of 0.932. Regarding CAGCGC, the binding signal was determined as 0.978. As to AGGCCC, the binding signal came out at 0.924. The same measure, in the same setting: under TATCAA stands 0.989; under ACACGG, 1.06.

In turn, AAAGTC showed a binding signal of 0.883. AAGGCC returned a binding signal of 0.915. In the case of AACTCT, the binding signal came out at 1.33. In the case of TTTAAG, the binding signal came out at 1.26.

For the origin of these results see PMC7862700.
